Laboratory results published in patent US8951997B2, “Substituted isoquinoline derivative” (D. Western Therapeutics Institute, Inc., priority 2009, dated 2015).
Counter-ions that a name gives are not always drawn. Some results were stated once for a whole list of compounds, not compound by compound.

Test system: spontaneously hypertensive rats (SHR/Izm)
Experiment: Blood pressure lowering effect in spontaneously hypertensive rats
Format: in vivo, rat
Settings: male, intraperitoneal
Description: The compound of the present invention was intraperitoneally administered to spontaneously hypertensive rats (SHR/Izm, sex: male, 4 to 6 rats per group) and evaluated for its blood pressure lowering effect. Examples 32, 34, and 35 were used as test compounds.
Each test compound was dissolved in saline and diluted to prepare a test compound solution with a predetermined concentration.
The test drug was intraperitoneally administered at a dose of 10 mg/kg (except for 30 mg/kg for Example 34) to the animals (4 to 6 rats per group), and their blood pressures and pulse rates were measured over time using Softron Indirect Blood Pressure Meter BP-98A.

SMILES | systolic blood pressure lowered compared with the value before administration (30 mg/kg) [%] | systolic blood pressure lowered compared with the value before administration (10 mg/kg) [%]
C[C@@H]1CCNCCN1S(=O)(=O)c1ccc2cnccc2c1 [Example 34, (R)-6-(7-methyl-1,4-diazepan-1-ylsulfonyl)isoquinoline dihydrochloride] | ≥ 30 | –
C[C@@H]1CCNC[C@@H](C)N1S(=O)(=O)c1ccc2cnccc2c1 [Example 35, (2R,7R)-6-(2,7-dimethyl-1,4-diazepan-1-ylsulfonyl)isoquinoline dihydrochloride] | – | ≥ 30
